Measurements reported in PubChem BioAssay AID504808 (Drosophila RNAi Screening Center, 2011).
Assay: 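Genes whose loss lifts activity of an E2F-responsive reporter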 (primary screen). Cell system: Drosophila S2 cells. Reagents: long dsRNA against Drosophila genes. Read-out: 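Dual luciferase plate measurements; E2F-specific signal taken as firefly over Renilla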. Reading the numbers: E2F firefly: higher = more E2F reporter activity; Renilla normaliser: higher = more normaliser reporter signal. Call rule: 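Called active if the normalised E2F reporter went up by over 50%; the cutoff is arbitrary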.
In all, the deposit lists about 21,000 reagents; below is a random part of those that have a named target and a result. In the full data, 18 (0.084%) got an active call. 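Raw counts without plate normalisation, one of two replicates; the ratio scores behind the calls were not deposited.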 A number with no mark means an inactive call. Names joined by + are all predicted targets of the reagent. Reagent sequences are not shown. The record does not give: the amount of reagent, the time to read-out.

no.	target gene	dsRNA	E2F firefly, rep 1	Renilla normaliser, rep 1
1	CG7514	DRSC08597	99243	4023
2	Ars2	DRSC04893	80233	3404
3	CG32603	DRSC19409	1.52e5	16065
4	CG33467	DRSC05525	1.34e5	5092
5	CG34124	DRSC00849	1.26e5	5726
6	CG18661	DRSC02690	1.70e5	5362
7	SmydA-8	DRSC18797	1.18e5	5668
8	CG5302 (retired record)	DRSC15764	1.25e5	6012
9	CG5302 (retired record)	DRSC15765	1.19e5	6131
10	CG18233	DRSC10308	1.58e5	7858
11	CG34435	DRSC18086	1.14e5	5670
12	CG31086 + CG31323	DRSC14902	96159	4946
13	CG31454	DRSC14365	1.49e5	5967
14	Sh	DRSC19214	63819	2467
15	Sh	DRSC19220	83255	2738
16	Sh	DRSC19785	1.40e5	5994
17	Sh	DRSC20055	2.60e5	7217
18	E(spl)m8-HLH	DRSC16654	1.20e5	6699
19	CG17024 (retired record)	DRSC02562	95554	3865
20	CG12926	DRSC06239	1.54e5	5097
21	Pex12	DRSC00622	1.52e5	6301
22	H2.0	DRSC03340	1.68e5	5579
23	Jheh3	DRSC06533	68915	3307
24	CG32277	DRSC08196	1.07e5	4144
25	phr6-4	DRSC03589	1.07e5	4386
26	PolD2	DRSC08147	66679	3759
27	CR12798	DRSC21078	1.49e5	6313
28	CG34461	DRSC10767	91595	3757
29	CG31550	DRSC12197	1.48e5	6673
30	CG31550	DRSC12198	86894	4111
31	CG7290	DRSC10800	1.18e5	6652
32	dib	DRSC08711	66332	3743
33	CG42591	DRSC08905	1.29e5	4442
34	Taf8	DRSC20363	1.16e5	5578
35	Gfat2	DRSC14598	1816	980

Part of the list above, reformatted:
{"target gene":"dib","dsRNA":"DRSC08711","E2F firefly, rep 1":66332,"Renilla normaliser, rep 1":3743}
{"target gene":"CG42591","dsRNA":"DRSC08905","E2F firefly, rep 1":1.29e5,"Renilla normaliser, rep 1":4442}
{"target gene":"Taf8","dsRNA":"DRSC20363","E2F firefly, rep 1":1.16e5,"Renilla normaliser, rep 1":5578}
{"target gene":"Gfat2","dsRNA":"DRSC14598","E2F firefly, rep 1":1816,"Renilla normaliser, rep 1":980}

The list goes on.
no.	target gene	dsRNA	E2F firefly, rep 1	Renilla normaliser, rep 1
36	Alg13	DRSC14864	1.13e5	5975
37	san	DRSC07695	1.04e5	4430
38	spri	DRSC17846	76942	5300
39	spri	DRSC17984	1.21e5	5555
40	spri	DRSC17985	1.30e5	5648
41	spri	DRSC17986	1.17e5	5559
42	spri	DRSC17988	1.19e5	5075
43	spri	DRSC17989	1.19e5	5971
44	CG42541	DRSC17973	1.14e5	5318
45	CG42541	DRSC18119	51031	2865
46	CG42541	DRSC18120	1.15e5	5466
47	myo	DRSC17174	1819	796
48	CG12998	DRSC19518	1.44e5	5681
49	CG7546	DRSC08885	1.30e5	5081
50	CG7546	DRSC10871	64805	3947
51	Ctr1A	DRSC18336	1.00e5	5311
52	mav	DRSC17149	41829	3287
53	Alp13	DRSC15781	1.39e5	5812
54	Fign	DRSC00592	92755	4050
55	Galphaq	DRSC07432	3255	222
56	Prip	DRSC07044	2908	221
57	fog	DRSC20646	1.73e5	5601
58	l(2)SH0834	DRSC02854	1.25e5	5711
59	thw	DRSC12552	1.35e5	6560
60	CG12155	DRSC17826	7645	740
61	Hers	DRSC19429	1.59e5	5445
62	Hers	DRSC19676	1.34e5	6345
63	CG3984	DRSC15530	1.01e5	6102
64	Snx27	DRSC17786	1.09e5	5662
65	Snx27	DRSC18282	1.13e5	5385
66	Snx27	DRSC18284	1.20e5	4892
67	Ir52a	DRSC06262	1.03e5	4153
68	CG17826	DRSC10289	1.16e5	7221
69	CG44433	DRSC06517	1.47e5	5761
70	CG44433	DRSC06518	1.53e5	4894
71	CG9121	DRSC03142	1.36e5	4875
72	Eaf6	DRSC09901	1.04e5	3605
73	ArfGAP3	DRSC11794	65164	3338
74	trk	DRSC03625	1.42e5	5217
75	CG3038	DRSC18618	1.01e5	5005
76	lqfR	DRSC14703	61679	2882
77	lqfR	DRSC14704	1.33e5	6936
78	Grx1t	DRSC04530	92659	3929
79	CycD	DRSC20233	32901	5640
80	BaraA1 + BaraA2	DRSC05417	1.34e5	5013
81	Ufc1	DRSC07156	83654	3270
82	RpL10Aa	DRSC15518	69836	6211
83	CG15919	DRSC06594	48883	3016
84	CG7409	DRSC10842	86720	3536
